According to patent publication US10071110B2, “Phosphonate compounds” (priority 1999, dated 2018):
For at least one compound, name, drawing or mass did not settle the structure.

Tested on: HSV-1
Test: HSV-1 antiviral assay, HSV DNA quantified by nucleic acid hybridization in MRC-5 cells
Format: cell-based
Conditions: CC50/EC50 (Table 7)

SMILES: CCCCCCCCCCCCCCCCOCCCOP(=O)(O)CO[C@H](CO)Cn1ccc(N)nc1=O [HDP-CDV]
- Selectivity Index: 25 10^6
